Test results: PubChem BioAssay AID2685 (National Center for Advancing Translational Sciences (NCATS), 2010)
The other results are listed elsewhere or left out. Shown are side measurements of this screen, not its main read-out; they come without a call. The list favours compounds with an active or inconclusive main result. Potencies come from curve fits of mixed quality, noted in brackets.

Assay: qHTS Assay for Lipid Storage Modulators in Drosophila S3 Cells;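 for cell number change: cells counted by Cell Tracker Red CMTPX staining in the red channel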
Conditions: BODIPY lipid droplet fluorescence, 18-24 h; for cell number change: measured here: cell count max response, cells fed with added oleic acid
Method in brief: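 Drosophila S3 cells got compounds at several concentrations plus oleic acid (400 uM solution). Laser-scanning cytometry with 488 nm excitation read lipid droplets at 500-530 nm and cells at 575-640 nm. Percent activity was relative to 20 uM Triacsin C.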

[1] = measured here: cell number channel AC50, cells fed with added oleic acid
[2] = measured here: lipid fluorescence (Fed channel) AC50, cells fed with added oleic acid

SMILES | cell number change [%] | AC50 [1] | AC50 [2]
CC(=NC1CC1)C1=C(O)c2ccccc2C1=O | 83.5 | 16.4 µM [rising, single point] | 29.1 µM [rising, single point]
COc1ccc(N2CCN(C(=O)C3CCN(S(=O)(=O)c4ccc(C)cc4)CC3)CC2)cc1 | – | 0.164 µM [falling, full curve, poor fit] | –
Cc1cc(C(=O)CCl)c(C)n1CC1COc2ccccc2O1 (centres undefined) | – | 0.13 µM [rising, full curve, poor fit] | –
COc1ccc(C2C(C#N)=C(N)Oc3cc(O)ccc32)cc1OC (centres undefined) | -5 | – | –
CSc1ccc(COC(=O)c2cc([N+](=O)[O-])ccc2N2CCOCC2)cc1 | – | – | 18.4 µM [falling, single point]
Cc1ccc(-c2noc(-c3ccccc3F)n2)cc1 | 8.81 | 3.26 µM [rising, partial curve, poor fit] | 2.31 µM [rising, partial curve]
CCOP(=O)(c1ccccc1Cl)C1(O)CCCCC1 (centres undefined) | -32.9 | 4.61 µM [falling, full curve, poor fit] | 16.4 µM [falling, partial curve]
O=C(c1cc2ccccc2o1)N1CCN(c2cccc(C(F)(F)F)c2)CC1 | -7.57 | – | –
CCc1ccc(-c2nc(-c3ccncc3)no2)cc1 | -52.1 | 23.1 µM [falling, partial curve] | 23.1 µM [falling, partial curve]
COc1cccc(CNC(=O)CCS(=O)(=O)c2ccc3c(c2)NC(=O)C(C)S3)c1 (centres undefined) | 3.36 | – | –
COc1ccccc1NC(=O)NCCc1c[nH]c2ccccc12 | 12.7 | – | 18.4 µM [rising, single point]
Cc1onc(-c2c(F)cccc2Cl)c1C(=O)NC1=NCCS1 | 6.65 | 0.731 µM [falling, partial curve] | 0.92 µM [falling, single point]
CCN(Cc1ccccc1)C(=O)CSc1n[nH]c(N)n1 | 35.3 | 29.1 µM [rising, single point] | –
CC(=O)N1CCN=C1SCc1ccc(C(F)(F)F)cc1 | 21.2 | – | 29.1 µM [rising, single point]
CC(C)(C)OC(=O)N1CCC(c2c(C(=O)NC3CC3)cnn2-c2ccc(Cl)cc2)CC1 | 0.597 | – | 16.4 µM [rising, partial curve]
CCc1ccc(NC(=O)c2ccc(C3SCC(=O)N3CCc3ccccc3)cc2)cc1 (centres undefined) | 83.2 | 1.64 µM [rising, full curve] | 0.731 µM [rising, full curve]
O=C(c1ccco1)c1cn[nH]c1-c1ccc(Cl)cc1O | -22.1 | – | –
COc1ccccc1NC(=O)c1csc(-n2nc(C)cc2C(F)(F)F)n1 | 17.8 | – | 0.58 µM [rising, full curve, poor fit]

SMILES | cell number change [%] | AC50 [1] | AC50 [2]
O=C(CNC(=O)c1ccccc1F)N/N=C/c1cccs1 | -19.1 | – | 3.26 µM [rising, single point]
COc1ccccc1N1CCN(S(=O)(=O)CCNC(=O)C2CC2)CC1 | -1.21 | – | 5.8 µM [rising, partial curve, poor fit]
CCOc1cccc2sc(N(CCCN(C)C)C(=O)c3ccc(S(=O)(=O)N4CCCCCC4)cc3)nc12 | -23 | – | 35.5 µM [falling, single point]
Cc1nnsc1C(=O)NNc1ccc(Cl)cc1 | 8.85 | 6.51 µM [falling, single point] | 6.51 µM [falling, single point]
CC1CCc2c(C(=O)NCc3ccccn3)csc2C1 (centres undefined) | 2.64 | – | 18.4 µM [rising, single point]
Cc1ccc(C)c(OCC(O)CN2CCCCC2C)c1 (centres undefined) | -9.6 | 0.00411 µM [rising, full curve, poor fit] | –
[O-][n+]1c2cc(C(F)(F)F)ccc2c2n1CCN=C2c1ccc(Cl)cc1 | 11.2 | 0.00461 µM [falling, full curve, poor fit] | 0.00461 µM [falling, full curve, poor fit]
Cc1[nH]c2ccccc2c1CN1CCC(Cc2ccccc2)CC1 | 0.221 | 1.84 µM [rising, partial curve, poor fit] | –
COc1cccc(-n2c(=O)[nH]cc(C(=O)Nc3ccc(NC(C)=O)cc3)c2=O)c1 | -15.1 | – | 0.92 µM [falling, full curve]
Cc1ccc(Oc2cc(C#N)c(C#N)cc2-n2nnc3ccccc32)cc1C | 42.7 | 0.731 µM [rising, full curve, poor fit] | –
COc1cnc(-c2ccccc2)nc1Oc1ccc(Cl)cc1C | – | – | 0.00517 µM [rising, full curve, poor fit]
CCC(C(=O)OCC(=O)c1ccc2c(c1)NC(=O)CO2)c1ccccc1 (centres undefined) | 15.4 | – | 0.651 µM [falling, single point]
Cc1ccc(C(=O)c2cc3c(cc2N)OCCO3)cc1 | – | 1.46 µM [rising, partial curve] | 0.58 µM [rising, single point]
COc1ccc(CNC(=O)c2ccc(-c3ccccc3)cc2)cc1 | 0.312 | 0.731 µM [falling, single point] | 0.731 µM [falling, full curve]
Cc1cc(C)c(S(=O)(=O)NCC(=O)NCc2cc(=O)n(C)c(=O)n2C)c(C)c1 | -19.3 | – | 29.1 µM [falling, single point]
COc1ccc2cc(OCC(=O)NNC(=O)Nc3ccc(F)cc3)ccc2c1 | 21.3 | – | 29.1 µM [rising, single point]
O=C(O)CSc1nnc(-c2ccc(S(=O)(=O)N3CCCC3)cc2)n1Cc1ccco1 | – | 0.146 µM [falling, full curve, poor fit] | –
COc1ccc(C(=O)N2CCSCC2)cc1OC1CCN(C(C)=O)CC1 | -14.4 | – | 16.4 µM [falling, single point]

Some of the entries so far, with tabs:
SMILES	cell number change [%]	AC50 [1]	AC50 [2]
CCOc1cccc2sc(N(CCCN(C)C)C(=O)c3ccc(S(=O)(=O)N4CCCCCC4)cc3)nc12	-23	–	35.5 µM [falling, single point]
CC1CCc2c(C(=O)NCc3ccccn3)csc2C1 (centres undefined)	2.64	–	18.4 µM [rising, single point]
Cc1ccc(C)c(OCC(O)CN2CCCCC2C)c1 (centres undefined)	-9.6	0.00411 µM [rising, full curve, poor fit]	–
Cc1[nH]c2ccccc2c1CN1CCC(Cc2ccccc2)CC1	0.221	1.84 µM [rising, partial curve, poor fit]	–
COc1cccc(-n2c(=O)[nH]cc(C(=O)Nc3ccc(NC(C)=O)cc3)c2=O)c1	-15.1	–	0.92 µM [falling, full curve]
Cc1ccc(C(=O)c2cc3c(cc2N)OCCO3)cc1	–	1.46 µM [rising, partial curve]	0.58 µM [rising, single point]
COc1ccc(CNC(=O)c2ccc(-c3ccccc3)cc2)cc1	0.312	0.731 µM [falling, single point]	0.731 µM [falling, full curve]
Cc1cc(C)c(S(=O)(=O)NCC(=O)NCc2cc(=O)n(C)c(=O)n2C)c(C)c1	-19.3	–	29.1 µM [falling, single point]
